Results reported in patent US20230190863A1, “PHARMACEUTICAL COMPOSITIONS AND ANTI-VIRAL USES THEREOF” (priority 2020, published 2023).
Values joined by “and” are separate entries in the source; they are usually repeats but may differ in a detail not shown here. Equal values may be shown once. At least one peptide structure holds a part that was inferred or is arguable (an end, a ring closure or a residue). Ends that are not written are not given here.

System: Influenza A virus (A / WSN /33)

In the case of WTAVQMAVFIHNFKRK [Codivir], the EC50 is reported as 29.6 µM and 9.28 µM.
